No constants are given. Whether binding was seen depends on the method and setting. In cells and extracts the contact can be indirect. Here binding means that the protein was enriched with, or labelled near, the bait; the list need not be complete.

Chains of the proteins cited; added tags and fusions are not shown.
UniProt P01100: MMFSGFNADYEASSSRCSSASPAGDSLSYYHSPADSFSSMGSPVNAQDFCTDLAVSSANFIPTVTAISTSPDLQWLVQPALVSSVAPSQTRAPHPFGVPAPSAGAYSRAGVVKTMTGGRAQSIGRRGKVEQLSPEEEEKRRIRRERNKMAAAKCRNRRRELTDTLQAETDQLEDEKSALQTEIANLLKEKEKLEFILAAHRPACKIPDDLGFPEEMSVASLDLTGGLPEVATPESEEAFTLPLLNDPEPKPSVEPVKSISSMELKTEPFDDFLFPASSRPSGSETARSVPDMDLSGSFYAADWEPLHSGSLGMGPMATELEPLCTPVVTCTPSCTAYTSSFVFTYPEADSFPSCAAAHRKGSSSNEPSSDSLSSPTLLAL

For experiment [1], the target named is c-Fos (human (endogenous in PCI13)) (UniProt P01100). Description: affinity purification with mass spectrometry; RIPA lysate of mock control cells; c-Fos immunoprecipitated (µMACS Protein A/G MicroBeads), reducing SDS-PAGE, compared with COLXVI cells.
The target is the same in experiment [2]. Description: affinity purification with mass spectrometry; RIPA lysate of COLXVI cells; c-Fos immunoprecipitated (µMACS Protein A/G MicroBeads), reducing SDS-PAGE, 58 kDa band excised, tryptic digest, nano-LC-MS/MS.

B1: dyskerin (DKC1) (protein, UniProt O60832 1-514)
chain: MADAEVIILPKKHKKKKERKSLPEEDVAEIQHAEEFLIKPESKVAKLDTSQWPLLLKNFDKLNVRTTHYTPLACGSNPLKREIGDYIRTGFINLDKPSNPSSHEVVAWIRRILRVEKTGHSGTLDPKVTGCLIVCIERATRLVKSQQSAGKEYVGIVRLHNAIEGGTQLSRALETLTGALFQRPPLIAAVKRQLRVRTIYESKMIEYDPERRLGIFWVSCEAGTYIRTLCVHLGLLLGVGGQMQELRRVRSGVMSEKDHMVTMHDVLDAQWLYDNHKDESYLRRVVYPLEKLLTSHKRLVMKDSAVNAICYGAKIMLPGVLRYEDGIEVNQEIVVITTKGEAICMAIALMTTAVISTCDHGIVAKIKRVIMERDTYPRKWGLGPKASQKKLMIKQGLLDKHGKPTDSTPATWKQEYVDYSESAKKEVVAEVVKAPQVVAEAAKTAKRKRESESESDETPPAAPQLIKKEKKKSKKDKKAKAGLESGAEPGDGDSDTTKKKKKKKKAKEVELVSE
For the molecule B1, the binding result in experiment [1] is “binds weakly”; in experiment [2] it was “binds”.

(Values after PMC3900656.)
